Data as given in patent publication US7494997B2, “Amide derivative” (Nippon Shinyaku Co., Ltd., priority 2002, dated 2009).

Tests used:
U937 cells = assay: Cell growth inhibitory effect, U937 cells (WST-8, 72 hours); conditions: Homo sapiens, U-937, 72 h, read-out: U937 cells (IC50 value: μM)
K562 cells = assay: Cell growth inhibitory effect, K562 cells (WST-8, 72 hours); conditions: Homo sapiens, K562, 72 h, read-out: K562 cells (IC50 value: μM)

IC50 (U937 cells): 17.8 µM
IC50 (K562 cells): 0.13 µM
SMILES: Cc1ccc(NC(=O)c2ccc(CN3CCN(C)CC3)cc2)cc1Nc1nccc(-c2cccnc2)n1 [control chemical, reference compound]
